Results taken from patent US20110207656A1.
No constants are given. Whether binding was seen depends on the method and setting. Binding seen in cells or lysates may run through a third protein. Some results given as binding are weak or reduced against the parent protein; the word gives no strength.

Chains of the proteins cited; added tags and fusions are not shown. Lines headed by an entry give the natural chain unless they say otherwise; changes in a name come on top.
UniProt Q14790: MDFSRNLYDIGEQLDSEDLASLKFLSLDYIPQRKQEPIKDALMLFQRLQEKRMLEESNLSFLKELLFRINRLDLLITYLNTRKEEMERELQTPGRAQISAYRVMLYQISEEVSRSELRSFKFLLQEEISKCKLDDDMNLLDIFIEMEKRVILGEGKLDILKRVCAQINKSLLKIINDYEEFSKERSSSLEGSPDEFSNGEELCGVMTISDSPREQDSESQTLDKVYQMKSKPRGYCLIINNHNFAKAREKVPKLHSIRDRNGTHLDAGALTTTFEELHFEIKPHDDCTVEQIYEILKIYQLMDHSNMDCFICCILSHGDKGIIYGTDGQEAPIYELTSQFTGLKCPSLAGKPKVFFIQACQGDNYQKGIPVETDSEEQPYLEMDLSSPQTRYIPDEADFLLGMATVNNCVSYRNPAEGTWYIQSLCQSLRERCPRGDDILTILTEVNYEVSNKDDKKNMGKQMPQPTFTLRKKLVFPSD

Target: His-caspase-8(184-384) (human) (UniProt Q14790)
Test: competition GST pull-down: peptide in increasing amounts against GST-MUC1-CD(1-20) for His-caspase-8-p18 (FIG. 9D, lower)

binding: binds
B1: synthetic MUC1-CD(1-20) peptide (peptide)
peptide: CQCRRKNYGQLDIFPARDTY
